The test relates to Mouse colon cancer CT26-hHER2 cells. Nature of the test: In vivo efficacy, mouse colon cancer CT26-hHER2 subcutaneous xenograft model. To be noted: 0.3 mg/kg i.t. QW×2. The protocol:
Cell culture: Mouse colon cancer CT26-hHER2 cells were maintained as monolayers in RPMI-1640 medium containing 10% fetal bovine serum at 37°C in a constant temperature incubator with 5% CO2. Cells were subcultured twice weekly after treatment with trypsin-EDTA. Cells in the exponential growth phase were harvested and counted for inoculation.
Experimental animals: BALB/c mice, 6-8 weeks, 16-18 g, purchased from Beijing Vital River Laboratory Animal Technology Co., Ltd.
12 experimental groups were set for Trastuzumab + I-3, II-4, II-6, II-38, II-43, II-42, II-44, II-49, II-53, II-57, and II-58, as shown in Table 10 below: Table 10
Experimental method: CT26-hHER2 cell line (3.0 × 10^6/mouse) was inoculated subcutaneously on the right back of experimental mice. The inoculation volume of each mouse was 0.1 mL. The growth of the tumor was observed regularly. When the tumor grew to about 100 mm^3, the mice were randomly grouped according to the size of the tumor and their body weights, and the drug was administered in accordance with the administration schedule, and the body weights and tumor sizes of the mice were measured two times per week throughout the experimental process.
Tumor size calculation formula: tumor volume (mm^3) = 0.5 × (tumor long diameter × tumor short diameter^2).

These results are taken from patent EP4834373A1, “CYCLIC DINUCLEOTIDE COMPOUND, CONJUGATE THEREOF, AND USE THEREOF” (dated 2026).

SMILES strings stand for the structures. The structures given here were assigned with low confidence; some may be wrong.

As for `CO[C@H]1[C@H]2O[P@](=O)(S)OC[C@H]3O[C@@H](n4cnc5c(N)ncnc54)[C@H](F)[C@@H]3O[P@](=O)(S)OC[C@H]1O[C@H]2n1c(=O)sc2c(N)ncnc21`, the “Tumor volume (Day 24, mm^3)” value is listed as 292.9±81.0 mm^3. For the setting “Day 24”, the “T/C (%)” value was 14.2% and the “TGI (%)” value is given as 85.9%.
